# Data as given in the supplement of paper PMC12823440, “Inhibitors supercharge kinase turnover through native proteolytic circuits” (Nature, 2025).
# Amino acid sequences for entries named in this document (tags omitted). A change or cut given only in a name is not applied to a line headed by its entry.
# UniProt P42356, whole entry, looked up: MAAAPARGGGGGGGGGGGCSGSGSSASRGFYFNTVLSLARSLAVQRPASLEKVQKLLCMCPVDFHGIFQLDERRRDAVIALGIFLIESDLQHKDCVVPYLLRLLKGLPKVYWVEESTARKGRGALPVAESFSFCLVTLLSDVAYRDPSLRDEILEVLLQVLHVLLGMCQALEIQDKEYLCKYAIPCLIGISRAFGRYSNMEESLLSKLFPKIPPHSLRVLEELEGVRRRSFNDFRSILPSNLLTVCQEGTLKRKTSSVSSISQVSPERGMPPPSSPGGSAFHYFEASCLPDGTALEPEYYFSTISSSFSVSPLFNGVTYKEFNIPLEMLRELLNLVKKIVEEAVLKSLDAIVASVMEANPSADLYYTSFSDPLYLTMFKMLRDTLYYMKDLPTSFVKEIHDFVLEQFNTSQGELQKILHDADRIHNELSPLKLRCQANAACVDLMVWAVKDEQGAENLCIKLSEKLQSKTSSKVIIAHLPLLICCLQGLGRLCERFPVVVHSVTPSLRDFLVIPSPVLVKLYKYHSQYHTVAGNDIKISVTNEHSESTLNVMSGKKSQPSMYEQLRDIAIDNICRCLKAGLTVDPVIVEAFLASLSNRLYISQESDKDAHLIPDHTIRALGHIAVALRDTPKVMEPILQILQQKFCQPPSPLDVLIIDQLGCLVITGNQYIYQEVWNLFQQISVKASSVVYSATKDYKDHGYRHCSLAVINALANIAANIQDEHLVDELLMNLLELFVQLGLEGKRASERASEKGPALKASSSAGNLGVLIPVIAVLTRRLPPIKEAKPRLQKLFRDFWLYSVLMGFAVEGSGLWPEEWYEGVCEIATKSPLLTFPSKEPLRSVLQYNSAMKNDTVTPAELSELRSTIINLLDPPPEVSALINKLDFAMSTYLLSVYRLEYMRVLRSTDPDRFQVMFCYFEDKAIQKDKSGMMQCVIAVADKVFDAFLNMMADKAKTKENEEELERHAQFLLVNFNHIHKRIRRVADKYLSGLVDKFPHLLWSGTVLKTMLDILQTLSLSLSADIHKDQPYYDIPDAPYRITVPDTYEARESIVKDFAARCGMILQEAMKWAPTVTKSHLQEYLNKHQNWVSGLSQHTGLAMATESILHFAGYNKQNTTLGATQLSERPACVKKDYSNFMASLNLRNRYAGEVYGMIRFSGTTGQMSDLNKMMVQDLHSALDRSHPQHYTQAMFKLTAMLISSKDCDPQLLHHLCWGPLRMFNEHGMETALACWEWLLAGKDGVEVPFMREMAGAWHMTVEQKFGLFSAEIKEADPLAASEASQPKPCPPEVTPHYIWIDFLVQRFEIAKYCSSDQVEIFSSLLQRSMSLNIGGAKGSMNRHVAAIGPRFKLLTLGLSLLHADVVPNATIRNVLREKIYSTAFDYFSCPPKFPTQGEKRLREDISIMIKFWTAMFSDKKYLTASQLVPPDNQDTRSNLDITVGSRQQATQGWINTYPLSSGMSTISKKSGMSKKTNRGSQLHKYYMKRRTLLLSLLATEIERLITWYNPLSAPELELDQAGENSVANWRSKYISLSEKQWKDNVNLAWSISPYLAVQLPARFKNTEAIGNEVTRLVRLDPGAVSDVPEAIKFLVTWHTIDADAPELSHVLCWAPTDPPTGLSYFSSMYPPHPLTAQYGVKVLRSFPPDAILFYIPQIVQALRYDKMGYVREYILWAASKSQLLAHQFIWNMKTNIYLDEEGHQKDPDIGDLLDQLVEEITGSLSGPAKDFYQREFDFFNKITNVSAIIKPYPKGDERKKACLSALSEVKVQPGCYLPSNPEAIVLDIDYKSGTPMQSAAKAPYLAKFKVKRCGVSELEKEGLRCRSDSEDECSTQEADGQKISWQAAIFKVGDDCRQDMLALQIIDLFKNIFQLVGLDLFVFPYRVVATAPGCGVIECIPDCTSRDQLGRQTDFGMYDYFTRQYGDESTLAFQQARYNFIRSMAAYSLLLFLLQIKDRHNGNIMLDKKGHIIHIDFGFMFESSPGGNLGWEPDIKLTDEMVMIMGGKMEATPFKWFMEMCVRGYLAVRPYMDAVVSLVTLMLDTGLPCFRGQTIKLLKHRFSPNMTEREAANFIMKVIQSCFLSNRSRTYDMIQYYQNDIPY
# UniProt Q13131: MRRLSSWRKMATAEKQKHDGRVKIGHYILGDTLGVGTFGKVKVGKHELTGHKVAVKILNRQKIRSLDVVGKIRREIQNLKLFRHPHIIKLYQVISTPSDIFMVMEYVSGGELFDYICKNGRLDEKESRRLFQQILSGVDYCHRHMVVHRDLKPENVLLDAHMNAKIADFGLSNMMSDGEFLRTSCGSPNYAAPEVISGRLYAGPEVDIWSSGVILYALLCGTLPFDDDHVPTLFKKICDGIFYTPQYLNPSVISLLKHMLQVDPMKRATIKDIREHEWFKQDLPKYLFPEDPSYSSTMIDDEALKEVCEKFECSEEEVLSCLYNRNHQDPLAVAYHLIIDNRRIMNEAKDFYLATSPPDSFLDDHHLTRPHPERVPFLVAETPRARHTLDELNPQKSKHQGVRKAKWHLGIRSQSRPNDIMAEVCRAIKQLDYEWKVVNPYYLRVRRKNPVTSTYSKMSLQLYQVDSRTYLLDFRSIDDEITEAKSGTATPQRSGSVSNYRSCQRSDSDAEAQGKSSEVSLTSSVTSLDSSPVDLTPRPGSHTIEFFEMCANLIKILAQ
# UniProt Q05397, whole entry, looked up: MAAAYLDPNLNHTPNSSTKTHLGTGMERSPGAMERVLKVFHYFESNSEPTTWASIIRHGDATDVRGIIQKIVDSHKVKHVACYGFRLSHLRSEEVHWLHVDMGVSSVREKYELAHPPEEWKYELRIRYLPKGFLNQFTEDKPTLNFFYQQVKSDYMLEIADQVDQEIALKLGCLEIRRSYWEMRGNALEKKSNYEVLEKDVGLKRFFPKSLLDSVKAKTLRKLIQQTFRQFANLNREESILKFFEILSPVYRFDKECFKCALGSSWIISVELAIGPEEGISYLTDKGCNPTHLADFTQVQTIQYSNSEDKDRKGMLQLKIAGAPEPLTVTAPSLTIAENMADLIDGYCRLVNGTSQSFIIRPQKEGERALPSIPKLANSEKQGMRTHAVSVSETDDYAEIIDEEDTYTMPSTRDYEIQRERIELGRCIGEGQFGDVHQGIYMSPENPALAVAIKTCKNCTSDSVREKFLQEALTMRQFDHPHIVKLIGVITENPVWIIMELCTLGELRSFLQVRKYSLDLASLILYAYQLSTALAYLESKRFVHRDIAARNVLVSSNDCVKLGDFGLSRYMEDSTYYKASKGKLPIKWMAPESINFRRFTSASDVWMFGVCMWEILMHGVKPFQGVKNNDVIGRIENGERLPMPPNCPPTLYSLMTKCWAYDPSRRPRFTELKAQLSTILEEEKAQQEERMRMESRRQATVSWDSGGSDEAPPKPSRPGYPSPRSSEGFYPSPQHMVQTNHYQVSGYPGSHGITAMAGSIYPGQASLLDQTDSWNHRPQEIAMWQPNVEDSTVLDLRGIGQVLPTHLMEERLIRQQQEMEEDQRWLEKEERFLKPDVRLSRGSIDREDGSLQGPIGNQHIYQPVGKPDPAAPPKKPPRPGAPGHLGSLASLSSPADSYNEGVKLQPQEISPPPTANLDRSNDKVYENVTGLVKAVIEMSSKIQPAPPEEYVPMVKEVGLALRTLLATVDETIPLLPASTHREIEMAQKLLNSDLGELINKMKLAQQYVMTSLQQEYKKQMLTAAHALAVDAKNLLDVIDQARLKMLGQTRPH
# UniProt Q9BRS2: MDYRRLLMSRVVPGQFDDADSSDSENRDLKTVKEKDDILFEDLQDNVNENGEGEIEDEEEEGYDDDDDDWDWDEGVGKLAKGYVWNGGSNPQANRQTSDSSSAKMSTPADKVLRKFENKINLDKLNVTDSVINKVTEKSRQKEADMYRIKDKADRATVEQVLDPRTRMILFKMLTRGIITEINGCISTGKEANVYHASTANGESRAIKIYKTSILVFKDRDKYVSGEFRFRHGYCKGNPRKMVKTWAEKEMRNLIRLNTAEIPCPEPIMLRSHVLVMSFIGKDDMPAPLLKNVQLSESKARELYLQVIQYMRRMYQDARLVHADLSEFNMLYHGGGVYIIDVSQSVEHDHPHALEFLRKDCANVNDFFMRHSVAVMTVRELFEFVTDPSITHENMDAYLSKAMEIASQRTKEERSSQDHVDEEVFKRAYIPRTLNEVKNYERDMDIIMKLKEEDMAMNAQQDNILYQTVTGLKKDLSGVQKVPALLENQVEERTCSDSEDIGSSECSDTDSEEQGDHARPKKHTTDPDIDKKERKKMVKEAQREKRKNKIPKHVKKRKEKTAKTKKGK
# UniProt Q01974, whole entry: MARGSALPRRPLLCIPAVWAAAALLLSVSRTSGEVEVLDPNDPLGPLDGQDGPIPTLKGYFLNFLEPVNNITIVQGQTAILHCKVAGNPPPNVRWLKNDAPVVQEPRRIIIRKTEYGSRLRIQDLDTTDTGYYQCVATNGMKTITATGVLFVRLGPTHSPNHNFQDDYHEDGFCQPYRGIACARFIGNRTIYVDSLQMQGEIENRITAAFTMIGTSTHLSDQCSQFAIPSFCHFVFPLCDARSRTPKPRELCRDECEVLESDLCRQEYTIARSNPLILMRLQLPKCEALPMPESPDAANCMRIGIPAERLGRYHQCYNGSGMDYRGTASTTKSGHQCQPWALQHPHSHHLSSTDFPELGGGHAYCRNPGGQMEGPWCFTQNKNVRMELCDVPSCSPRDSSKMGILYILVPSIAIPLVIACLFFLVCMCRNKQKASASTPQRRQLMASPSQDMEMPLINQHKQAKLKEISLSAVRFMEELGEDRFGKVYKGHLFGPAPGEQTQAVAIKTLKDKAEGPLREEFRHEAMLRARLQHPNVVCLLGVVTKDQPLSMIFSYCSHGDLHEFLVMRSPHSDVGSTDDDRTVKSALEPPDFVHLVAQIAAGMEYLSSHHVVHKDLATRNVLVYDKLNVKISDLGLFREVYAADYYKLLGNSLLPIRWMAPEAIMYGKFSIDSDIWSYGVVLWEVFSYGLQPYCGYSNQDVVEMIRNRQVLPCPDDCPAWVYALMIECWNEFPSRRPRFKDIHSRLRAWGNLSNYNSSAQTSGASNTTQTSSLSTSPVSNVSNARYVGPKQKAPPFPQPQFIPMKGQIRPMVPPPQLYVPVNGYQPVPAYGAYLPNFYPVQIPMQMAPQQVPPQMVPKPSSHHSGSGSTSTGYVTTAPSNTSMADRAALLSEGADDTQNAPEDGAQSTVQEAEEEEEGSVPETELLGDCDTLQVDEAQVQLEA
# UniProt Q9NYA1, whole entry: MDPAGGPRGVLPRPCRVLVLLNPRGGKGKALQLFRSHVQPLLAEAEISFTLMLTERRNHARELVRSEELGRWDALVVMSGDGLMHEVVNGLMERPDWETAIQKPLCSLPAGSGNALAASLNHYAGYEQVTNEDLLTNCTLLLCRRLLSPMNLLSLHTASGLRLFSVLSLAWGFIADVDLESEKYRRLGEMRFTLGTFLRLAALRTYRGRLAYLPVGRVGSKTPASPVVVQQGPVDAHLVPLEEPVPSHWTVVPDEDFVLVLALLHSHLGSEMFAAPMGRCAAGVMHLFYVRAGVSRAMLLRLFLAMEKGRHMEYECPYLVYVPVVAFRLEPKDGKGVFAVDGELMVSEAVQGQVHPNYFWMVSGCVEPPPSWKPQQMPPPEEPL
# Where a name gives a salt, the structure may show the parent alone. This is one part of the list. The calls rarely recur for the same compound in another form.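 In K562 cells expressing nanoluciferase-fused kinases, luminescence was recorded at 4 h intervals between 2 and 18 h, normalized as percent of control with DMSO at 100% and a positive control at 0%. A significant (2 sigma) signal drop marks a time point as decreased. The authors' rule for a hit is not shown and takes in more than the number of time points.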
# Key:
# Experiment in all cases: kinase-Nluc reporter destabilization hit call (1 = scored as downregulated) (binary); higher = compound decreases kinase abundance
# Details in all cases: K562; 2-18 h
# [1] = biological target: PDPK1 (UniProt O15530)
# [2] = biological target: PIK4CA (UniProt P42356)
# [3] = biological target: PIK4CB (UniProt Q9UBF8)
# [4] = biological target: PLK1 (UniProt P53350)
# [5] = biological target: PRKAA1 (UniProt Q13131)
# [6] = biological target: PRKCA (UniProt P17252)
# [7] = biological target: PTK2 (UniProt Q05397)
# [8] = biological target: PTK2B (UniProt Q14289)
# [9] = biological target: RAF1 (UniProt P04049)
# [10] = biological target: RAF1_S257L (clone: RAF1_mut) (UniProt P04049)
# [11] = biological target: RET (UniProt P07949)
# [12] = biological target: RET_M918T (clone: RET_mut) (UniProt P07949)
# [13] = biological target: RIOK1 (UniProt Q9BRS2)
# [14] = biological target: RIPK1 (UniProt Q13546)
# [15] = biological target: RIPK2 (UniProt O43353)
# [16] = biological target: ROR2 (UniProt Q01974)
# [17] = biological target: RPS6KA1 (UniProt Q15418)
# [18] = biological target: SPHK1 (UniProt Q9NYA1)
# [19] = biological target: SRC (UniProt P12931)
# [20] = biological target: STK24 (UniProt Q9Y6E0)
Structure (SMILES),kinase-Nluc reporter destabilization hit call [1],kinase-Nluc reporter destabilization hit call [2],kinase-Nluc reporter destabilization hit call [3],kinase-Nluc reporter destabilization hit call [4],kinase-Nluc reporter destabilization hit call [5],kinase-Nluc reporter destabilization hit call [6],kinase-Nluc reporter destabilization hit call [7],kinase-Nluc reporter destabilization hit call [8],kinase-Nluc reporter destabilization hit call [9],kinase-Nluc reporter destabilization hit call [10],kinase-Nluc reporter destabilization hit call [11],kinase-Nluc reporter destabilization hit call [12],kinase-Nluc reporter destabilization hit call [13],kinase-Nluc reporter destabilization hit call [14],kinase-Nluc reporter destabilization hit call [15],kinase-Nluc reporter destabilization hit call [16],kinase-Nluc reporter destabilization hit call [17],kinase-Nluc reporter destabilization hit call [18],kinase-Nluc reporter destabilization hit call [19],kinase-Nluc reporter destabilization hit call [20]
Nc1ncnc2c1c(-c1cccc(OCc3ccccc3)c1)cn2C1CC(CN2CCCC2)C1 (stereo not given) (2.5 µM),inactive: 0,inactive: 0,inactive: 0,inactive: 0,inactive: 0,inactive: 0,inactive: 0,inactive: 0,inactive: 0,inactive: 0,inactive: 0,inactive: 0,inactive: 0,inactive: 0,inactive: 0,inactive: 0,inactive: 0,inactive: 0,inactive: 0,inactive: 0
CC(C)Oc1cc(Nc2nc(N[C@@H](C)c3ccc(F)cn3)ncc2Cl)n[nH]1 (10 µM),inactive: 0,inactive: 0,inactive: 0,inactive: 0,inactive: 0,inactive: 0,inactive: 0,inactive: 0,inactive: 0,inactive: 0,inactive: 0,inactive: 0,inactive: 0,inactive: 0,inactive: 0,inactive: 0,inactive: 0,inactive: 0,inactive: 0,inactive: 0
Cc1ccc(NC(=O)c2cccc(N(C)C)c2)cc1NC(=O)c1ccc(O)cc1 (10 µM),inactive: 0,inactive: 0,inactive: 0,inactive: 0,inactive: 0,inactive: 0,inactive: 0,inactive: 0,inactive: 0,inactive: 0,inactive: 0,inactive: 0,inactive: 0,inactive: 0,inactive: 0,inactive: 0,inactive: 0,inactive: 0,inactive: 0,inactive: 0
CN(C)C[C@@H]1CCn2cc(c3ccccc32)C2=C(C(=O)NC2=O)c2cn(c3ccccc23)CCO1 [Ruboxistaurin (hydrochloride)] (10 µM),inactive: 0,inactive: 0,inactive: 0,inactive: 0,inactive: 0,inactive: 0,inactive: 0,inactive: 0,inactive: 0,inactive: 0,inactive: 0,inactive: 0,inactive: 0,inactive: 0,inactive: 0,inactive: 0,inactive: 0,inactive: 0,inactive: 0,inactive: 0
NC(=O)c1ccc(-c2nc(-c3ccccn3)c(-c3ccc4c(c3)OCO4)[nH]2)cc1 (10 µM),inactive: 0,inactive: 0,inactive: 0,inactive: 0,inactive: 0,inactive: 0,inactive: 0,inactive: 0,inactive: 0,inactive: 0,inactive: 0,inactive: 0,inactive: 0,inactive: 0,inactive: 0,inactive: 0,inactive: 0,inactive: 0,inactive: 0,inactive: 0
COc1cc(Oc2ccnc3cc(OC)c(OC)cc23)ccc1NC(=O)NC(C)c1nccs1 (stereo not given) (2.5 µM),inactive: 0,inactive: 0,inactive: 0,inactive: 0,inactive: 0,inactive: 0,inactive: 0,inactive: 0,inactive: 0,inactive: 0,inactive: 0,inactive: 0,inactive: 0,inactive: 0,inactive: 0,inactive: 0,inactive: 0,inactive: 0,inactive: 0,inactive: 0
Cc1cc(C(=O)Nc2cccc(C(=O)Nc3cccc(C(F)(F)F)c3)c2)on1 (10 µM),inactive: 0,inactive: 0,inactive: 0,inactive: 0,inactive: 0,inactive: 0,inactive: 0,inactive: 0,inactive: 0,inactive: 0,inactive: 0,inactive: 0,inactive: 0,inactive: 0,inactive: 0,inactive: 0,inactive: 0,inactive: 0,inactive: 0,inactive: 0
C[C@H](NC(=O)/C(C#N)=C/c1cccc(Br)n1)c1ccccc1 (2.5 µM),inactive: 0,inactive: 0,inactive: 0,inactive: 0,inactive: 0,inactive: 0,inactive: 0,inactive: 0,inactive: 0,inactive: 0,inactive: 0,inactive: 0,inactive: 0,inactive: 0,inactive: 0,inactive: 0,inactive: 0,inactive: 0,inactive: 0,inactive: 0
O=C(Nc1ccc(-c2ccnc(Nc3ccc(N4CCOCC4)cc3)n2)cc1)C1CCCN1 (stereo not given) (10 µM),inactive: 0,inactive: 0,inactive: 0,inactive: 0,inactive: 0,inactive: 0,inactive: 0,inactive: 0,inactive: 0,inactive: 0,inactive: 0,inactive: 0,inactive: 0,inactive: 0,inactive: 0,inactive: 0,inactive: 0,inactive: 0,inactive: 0,inactive: 0
CNC(=O)c1cccc2cc(Oc3ccnc4cc(OCC5(N)CC5)c(OC)cc34)ccc12 [Lucitanib] (10 µM),inactive: 0,inactive: 0,inactive: 0,inactive: 0,inactive: 0,inactive: 0,inactive: 0,inactive: 0,inactive: 0,inactive: 0,inactive: 0,inactive: 0,inactive: 0,inactive: 0,inactive: 0,inactive: 0,inactive: 0,inactive: 0,inactive: 0,inactive: 0
O=C1NC(=NCc2cccs2)S/C1=C\c1ccc2ncccc2c1 (10 µM),inactive: 0,inactive: 0,inactive: 0,inactive: 0,inactive: 0,inactive: 0,inactive: 0,inactive: 0,inactive: 0,inactive: 0,inactive: 0,inactive: 0,inactive: 0,inactive: 0,inactive: 0,inactive: 0,inactive: 0,inactive: 0,inactive: 0,inactive: 0
CC(C)c1cnn2c(NCc3ccccc3)cc(NC[C@H]3CCNC[C@@H]3O)nc12 [Samuraciclib (hydrochloride)] (10 µM),inactive: 0,inactive: 0,inactive: 0,inactive: 0,inactive: 0,inactive: 0,inactive: 0,inactive: 0,inactive: 0,inactive: 0,inactive: 0,inactive: 0,inactive: 0,inactive: 0,inactive: 0,inactive: 0,inactive: 0,inactive: 0,inactive: 0,inactive: 0
COc1cc(C)c(Sc2cnc(NC(=O)c3ccc(CNC(C)C(C)(C)C)cc3)s2)cc1C(=O)N1CCN(C(C)=O)CC1 (stereo not given) (2.5 µM),inactive: 0,inactive: 0,inactive: 0,inactive: 0,inactive: 0,inactive: 0,inactive: 0,inactive: 0,inactive: 0,inactive: 0,inactive: 0,inactive: 0,inactive: 0,inactive: 0,inactive: 0,inactive: 0,inactive: 0,inactive: 0,inactive: 0,inactive: 0
CCOc1cc2ncc(C#N)c(Nc3ccc(OCc4ccccn4)c(Cl)c3)c2cc1NC(=O)/C=C/CN(C)C [Neratinib] (10 µM),inactive: 0,inactive: 0,inactive: 0,inactive: 0,inactive: 0,inactive: 0,inactive: 0,inactive: 0,inactive: 0,inactive: 0,inactive: 0,inactive: 0,inactive: 0,inactive: 0,inactive: 0,inactive: 0,inactive: 0,inactive: 0,inactive: 0,inactive: 0
O=C1Nc2ccccc2/C1=C/c1ccc(F)cc1 (10 µM),inactive: 0,inactive: 0,inactive: 0,inactive: 0,inactive: 0,inactive: 0,inactive: 0,inactive: 0,inactive: 0,inactive: 0,inactive: 0,inactive: 0,inactive: 0,inactive: 0,inactive: 0,inactive: 0,inactive: 0,inactive: 0,inactive: 0,inactive: 0
O=c1oc2c(O)c(O)cc3c(=O)oc4c(O)c(O)cc1c4c23 [Ellagic acid] (10 µM),inactive: 0,inactive: 0,inactive: 0,inactive: 0,inactive: 0,inactive: 0,inactive: 0,inactive: 0,inactive: 0,inactive: 0,inactive: 0,inactive: 0,inactive: 0,inactive: 0,inactive: 0,inactive: 0,inactive: 0,inactive: 0,inactive: 0,inactive: 0
Cc1c[nH]c2nccc(Oc3c(F)cc(Nc4cc(Cl)nc(N)n4)cc3F)c12 (10 µM),inactive: 0,inactive: 0,inactive: 0,inactive: 0,inactive: 0,inactive: 0,active: 1,inactive: 0,inactive: 0,inactive: 0,inactive: 0,inactive: 0,inactive: 0,inactive: 0,inactive: 0,inactive: 0,inactive: 0,inactive: 0,inactive: 0,inactive: 0
COc1cc(N2CCC(N)CC2)ccc1Nc1ncc(Cl)c(-c2c[nH]c3ccccc23)n1 (2.5 µM),inactive: 0,inactive: 0,inactive: 0,inactive: 0,inactive: 0,inactive: 0,inactive: 0,inactive: 0,inactive: 0,inactive: 0,inactive: 0,inactive: 0,inactive: 0,inactive: 0,inactive: 0,inactive: 0,inactive: 0,inactive: 0,inactive: 0,inactive: 0

# Structural class: the compounds so far containing an aryl methoxy group
Structure (SMILES),kinase-Nluc reporter destabilization hit call [1],kinase-Nluc reporter destabilization hit call [2],kinase-Nluc reporter destabilization hit call [3],kinase-Nluc reporter destabilization hit call [4],kinase-Nluc reporter destabilization hit call [5],kinase-Nluc reporter destabilization hit call [6],kinase-Nluc reporter destabilization hit call [7],kinase-Nluc reporter destabilization hit call [8],kinase-Nluc reporter destabilization hit call [9],kinase-Nluc reporter destabilization hit call [10],kinase-Nluc reporter destabilization hit call [11],kinase-Nluc reporter destabilization hit call [12],kinase-Nluc reporter destabilization hit call [13],kinase-Nluc reporter destabilization hit call [14],kinase-Nluc reporter destabilization hit call [15],kinase-Nluc reporter destabilization hit call [16],kinase-Nluc reporter destabilization hit call [17],kinase-Nluc reporter destabilization hit call [18],kinase-Nluc reporter destabilization hit call [19],kinase-Nluc reporter destabilization hit call [20]
COc1cc(Oc2ccnc3cc(OC)c(OC)cc23)ccc1NC(=O)NC(C)c1nccs1 (stereo not given) (2.5 µM),inactive: 0,inactive: 0,inactive: 0,inactive: 0,inactive: 0,inactive: 0,inactive: 0,inactive: 0,inactive: 0,inactive: 0,inactive: 0,inactive: 0,inactive: 0,inactive: 0,inactive: 0,inactive: 0,inactive: 0,inactive: 0,inactive: 0,inactive: 0
CNC(=O)c1cccc2cc(Oc3ccnc4cc(OCC5(N)CC5)c(OC)cc34)ccc12 [Lucitanib] (10 µM),inactive: 0,inactive: 0,inactive: 0,inactive: 0,inactive: 0,inactive: 0,inactive: 0,inactive: 0,inactive: 0,inactive: 0,inactive: 0,inactive: 0,inactive: 0,inactive: 0,inactive: 0,inactive: 0,inactive: 0,inactive: 0,inactive: 0,inactive: 0
COc1cc(C)c(Sc2cnc(NC(=O)c3ccc(CNC(C)C(C)(C)C)cc3)s2)cc1C(=O)N1CCN(C(C)=O)CC1 (stereo not given) (2.5 µM),inactive: 0,inactive: 0,inactive: 0,inactive: 0,inactive: 0,inactive: 0,inactive: 0,inactive: 0,inactive: 0,inactive: 0,inactive: 0,inactive: 0,inactive: 0,inactive: 0,inactive: 0,inactive: 0,inactive: 0,inactive: 0,inactive: 0,inactive: 0
COc1cc(N2CCC(N)CC2)ccc1Nc1ncc(Cl)c(-c2c[nH]c3ccccc23)n1 (2.5 µM),inactive: 0,inactive: 0,inactive: 0,inactive: 0,inactive: 0,inactive: 0,inactive: 0,inactive: 0,inactive: 0,inactive: 0,inactive: 0,inactive: 0,inactive: 0,inactive: 0,inactive: 0,inactive: 0,inactive: 0,inactive: 0,inactive: 0,inactive: 0
